Experiment [1] deals with Strep-tag integrin β1 cytoplasmic tail (human) (UniProt P05556). Nature of the experiment: pull-down; TwinStrep-tagged integrin tails (about 2.5 μg) on Strep-Tactin Sepharose beads; 2 μM His-SUMO protein in 50 mM Tris pH 8, 150 mM NaCl, 10% glycerol, 0.05% Tween, 10 μM ZnCl2, 2 h at 4°C; eluted with 50 mM biotin; western blot; both purified.
The target of experiment [2] is Strep-tag integrin β3 cytoplasmic tail, wild type (not stated (human or mouse cDNA cloned)) (UniProt P05106). The experiment is described as above.

Amino acid sequences for entries named in this document (tags omitted). Residues count along the entry.
UniProt P05556, residues 752-798: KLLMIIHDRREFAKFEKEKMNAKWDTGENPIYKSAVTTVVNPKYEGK
UniProt P05106, residues 742-788: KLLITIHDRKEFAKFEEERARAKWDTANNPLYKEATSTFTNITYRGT
UniProt Q96AC1: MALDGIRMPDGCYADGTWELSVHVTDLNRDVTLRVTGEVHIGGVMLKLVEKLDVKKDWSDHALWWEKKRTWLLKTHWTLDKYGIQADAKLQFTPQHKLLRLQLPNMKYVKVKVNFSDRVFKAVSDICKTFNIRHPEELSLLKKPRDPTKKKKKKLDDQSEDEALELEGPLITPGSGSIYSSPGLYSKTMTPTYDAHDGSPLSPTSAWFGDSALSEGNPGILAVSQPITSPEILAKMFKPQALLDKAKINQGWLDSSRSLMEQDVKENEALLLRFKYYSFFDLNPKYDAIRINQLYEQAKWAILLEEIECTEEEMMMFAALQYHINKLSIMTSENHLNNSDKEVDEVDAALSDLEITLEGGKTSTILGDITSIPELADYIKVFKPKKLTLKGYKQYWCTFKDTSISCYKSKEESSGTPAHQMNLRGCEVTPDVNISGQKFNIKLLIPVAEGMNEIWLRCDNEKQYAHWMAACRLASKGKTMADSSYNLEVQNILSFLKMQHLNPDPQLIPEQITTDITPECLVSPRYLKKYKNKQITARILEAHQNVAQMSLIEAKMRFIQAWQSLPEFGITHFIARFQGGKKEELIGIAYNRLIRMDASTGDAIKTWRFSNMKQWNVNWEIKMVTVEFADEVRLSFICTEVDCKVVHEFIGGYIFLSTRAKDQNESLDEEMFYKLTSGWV

No constants are given. Whether binding was seen depends on the method and setting. Some results given as binding are weak or reduced against the parent protein; the word gives no strength.

With “His6SUMO-kindlin2 (from UniProt Q96AC1 1-680)”, the binding entry in experiment [1] and in experiment [2] was “binds” each time.

Source of the values: paper PMC11374337 (2024).
